According to US20180333469A1:
No constants are given. Whether binding was seen depends on the method and setting. Some entries that bind do so weakly or less than the wild type.

Sequences of proteins named here, by UniProt entry; tags and fusion partners are left off. A change or cut given only in a name is not applied to a line headed by its entry. Residues count along the entry.
UniProt P10646, residues 29-304: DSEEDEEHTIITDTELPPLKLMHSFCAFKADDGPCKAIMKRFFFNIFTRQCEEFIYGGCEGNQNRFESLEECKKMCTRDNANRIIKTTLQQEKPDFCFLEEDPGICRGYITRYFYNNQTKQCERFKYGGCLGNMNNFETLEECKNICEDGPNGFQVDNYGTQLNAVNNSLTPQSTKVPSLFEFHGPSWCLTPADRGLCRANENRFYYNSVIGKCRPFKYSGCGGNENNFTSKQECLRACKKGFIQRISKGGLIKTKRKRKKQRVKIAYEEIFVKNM
UniProt P00742: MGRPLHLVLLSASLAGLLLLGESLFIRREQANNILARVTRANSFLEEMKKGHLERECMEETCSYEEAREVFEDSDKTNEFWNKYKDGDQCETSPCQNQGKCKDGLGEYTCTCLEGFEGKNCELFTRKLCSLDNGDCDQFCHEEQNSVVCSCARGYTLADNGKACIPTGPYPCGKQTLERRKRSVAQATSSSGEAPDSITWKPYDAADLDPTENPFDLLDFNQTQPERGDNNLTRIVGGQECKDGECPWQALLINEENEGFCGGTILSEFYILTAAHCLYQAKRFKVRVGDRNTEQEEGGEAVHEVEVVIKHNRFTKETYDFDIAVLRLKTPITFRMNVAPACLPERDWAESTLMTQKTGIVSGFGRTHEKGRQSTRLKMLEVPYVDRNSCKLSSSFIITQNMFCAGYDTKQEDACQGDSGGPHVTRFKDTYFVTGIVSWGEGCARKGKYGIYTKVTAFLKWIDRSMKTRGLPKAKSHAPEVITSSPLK

Experiments:
[1] = molecular target: tissue factor pathway inhibitor (TFPI) (UniProt P10646); test: fXa chromogenic assay, kinetic fit of the reversal of TFPI inhibition (summary of Table 7)
[2] = molecular target: tissue factor pathway inhibitor (TFPI) (UniProt P10646); test: competition in the fXa chromogenic activity assay (Spectrozyme-fXa): SEQ ID NO: 3 (0, 1, 5 nM) competes with fXa (1 nM) for TFPI (0-12 nM), with fVIIa 1 nM and TF/PCPS (2 nM TF)
[3] = molecular target: tissue factor pathway inhibitor (TFPI) (UniProt P10646); test: fXa chromogenic assay, kinetics
[4] = molecular target: tissue factor pathway inhibitor (TFPI) (UniProt P10646); test: competition in the fXa chromogenic activity assay: SEQ ID NO: 3 (0-50 nM) competes with fXa (1.0 or 0.5 nM) for TFPI (1.0 nM); readout is the restored fXa activity
[5] = molecular target: tissue factor pathway inhibitor (TFPI) (UniProt P10646); test: fXa chromogenic assay, kinetics (FIG. 1A-D)
[6] = molecular target: tissue factor pathway inhibitor (TFPI) (UniProt P10646); test: competition in the fXa chromogenic activity assay (Spectrozyme-fXa): SEQ ID NO: 3 (0, 1.0, 5.0 nM) competes with fXa (1.0 nM) for TFPI (0-12 nM)
[7] = molecular target: tissue factor pathway inhibitor (TFPI) (UniProt P10646); test: SPR, Biacore 3000
[8] = molecular target: tissue factor pathway inhibitor (TFPI) (UniProt P10646); test: competition in a fXa chromogenic activity assay with substrate S-2765: SEQ ID NO: 3 (0-20 nM) competes with fXa (1 nM) for TFPI (1 or 4 nM)

Measured: binding

fXa derivative (SEQ ID NO: 3) (from UniProt P00742 80-179; P00742 235-488)
binds: all assays above
